PubChem BioAssay AID1224830 | NIAID, 2016

Aim: 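Genes whose knock-down alters the TNF-alpha reporter response to LPS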 (primary screen)
Cells: human THP-1 monocytic leukaemia cells, TNF dual-luciferase reporter clone, PMA-differentiated to macrophage-like cells
Reagent: siRNA pool against human genes, 50 nM
Timing: LPS for 4 h, given about 3 days after siRNA transfection
Conditions: bacterial LPS (TLR4 ligand), 10 ng/ml
Detection: 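Ratio of firefly to renilla light, scaled to the plate median and expressed as a robust z-score per replicate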
Direction: TNF reporter robust z-score: higher = stronger TNF reporter response to LPS
Hit rule: 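a well is active when its z-score exceeds 2.8 or falls below -1.5; control wells carry no call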
Shown is a random part of about 18,000 deposited reagents. In the full data, about 2,900 (16%) are marked active. 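Calls are made per well; low scores hint the gene aids the LPS response, high scores that it dampens it.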 Entries without a mark were called inactive. Repeated entries: four replicate wells of each siRNA pool.

{"target gene": "FCER1A (Fc epsilon receptor Ia)", "TNF reporter robust z-score": 1.17}
{"target gene": "FCER1A (Fc epsilon receptor Ia)", "TNF reporter robust z-score": 2.58}
{"target gene": "FCER1A (Fc epsilon receptor Ia)", "TNF reporter robust z-score": 1.5}
{"target gene": "FCER1A (Fc epsilon receptor Ia)", "TNF reporter robust z-score": 2.78}
{"target gene": "MRPL34 (mitochondrial ribosomal protein L34)", "TNF reporter robust z-score": -0.36}
{"target gene": "MRPL34 (mitochondrial ribosomal protein L34)", "TNF reporter robust z-score": -0.1}
{"target gene": "MRPL34 (mitochondrial ribosomal protein L34)", "TNF reporter robust z-score": -0.33}
{"target gene": "MRPL34 (mitochondrial ribosomal protein L34)", "TNF reporter robust z-score": 0.21}
{"target gene": "SELENOS (selenoprotein S)", "TNF reporter robust z-score": -0.2}
{"target gene": "SELENOS (selenoprotein S)", "TNF reporter robust z-score": 0.05}
{"target gene": "SELENOS (selenoprotein S)", "TNF reporter robust z-score": -0.45}
{"target gene": "SELENOS (selenoprotein S)", "TNF reporter robust z-score": -0.03}
{"target gene": "SIRT2 (sirtuin 2)", "TNF reporter robust z-score": 0.19}
{"target gene": "SIRT2 (sirtuin 2)", "TNF reporter robust z-score": 0.84}
{"target gene": "SIRT2 (sirtuin 2)", "TNF reporter robust z-score": -0.53}
{"target gene": "SIRT2 (sirtuin 2)", "TNF reporter robust z-score": 0.73}
{"target gene": "POLR2F (RNA polymerase II, I and III subunit F)", "TNF reporter robust z-score": "-1.86 (active)"}
{"target gene": "POLR2F (RNA polymerase II, I and III subunit F)", "TNF reporter robust z-score": "-1.79 (active)"}
{"target gene": "POLR2F (RNA polymerase II, I and III subunit F)", "TNF reporter robust z-score": "-1.76 (active)"}
{"target gene": "POLR2F (RNA polymerase II, I and III subunit F)", "TNF reporter robust z-score": -1.23}

Already shown: 2 of the entries above.
{"target gene": "FCER1A (Fc epsilon receptor Ia)", "TNF reporter robust z-score": 1.5}
{"target gene": "FCER1A (Fc epsilon receptor Ia)", "TNF reporter robust z-score": 2.78}
